# Measurements taken from article PMC12811313.
# Protein sequences, listed by entry. Tags and fused reporters are not part of them. Lines headed by an entry give the natural chain unless they say otherwise; changes in a name come on top.
# UniProt P19474: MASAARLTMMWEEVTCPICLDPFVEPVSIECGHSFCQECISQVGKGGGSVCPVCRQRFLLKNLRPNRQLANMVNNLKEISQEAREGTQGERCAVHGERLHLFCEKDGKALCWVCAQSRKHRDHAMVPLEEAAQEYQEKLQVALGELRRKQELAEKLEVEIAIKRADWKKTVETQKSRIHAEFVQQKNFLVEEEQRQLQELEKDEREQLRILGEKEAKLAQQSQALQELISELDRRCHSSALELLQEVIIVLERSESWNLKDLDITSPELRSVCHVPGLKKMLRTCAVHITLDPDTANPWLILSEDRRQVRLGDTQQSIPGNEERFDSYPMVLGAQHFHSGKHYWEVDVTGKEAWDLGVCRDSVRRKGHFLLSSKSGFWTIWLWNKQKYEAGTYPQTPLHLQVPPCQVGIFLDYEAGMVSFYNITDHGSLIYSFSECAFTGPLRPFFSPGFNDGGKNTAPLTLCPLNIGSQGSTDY
# These are yes or no findings as the source states them, for the method shown. In cells and extracts the contact can be indirect. Some binding calls cover weakened binding; strength is not graded here.
# Legend:
# [1] = target: T1, Synaptosomal-associated protein 23 (SNAP23) (human (endogenous in SW620 and HT29)) (UniProt O00161); experiment: co-IP; endogenous proteins in RIPA lysates of SW620 and HT29 cells; antibody overnight at 4 °C, protein A+G agarose 1 h at room temperature; also in control, SNAP23-knockdown and SNAP23-restored cells
# T1 sequence: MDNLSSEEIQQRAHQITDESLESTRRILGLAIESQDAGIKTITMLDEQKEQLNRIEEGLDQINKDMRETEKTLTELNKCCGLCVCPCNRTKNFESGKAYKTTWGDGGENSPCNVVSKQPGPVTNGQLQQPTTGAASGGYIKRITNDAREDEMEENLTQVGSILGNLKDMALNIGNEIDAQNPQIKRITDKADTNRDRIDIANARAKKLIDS
# [2] = target: T2, mitochondrial transcription factor A (TFAM) (human (endogenous in SW620 and HT29)) (UniProt Q00059); experiment: as above
# T2 sequence: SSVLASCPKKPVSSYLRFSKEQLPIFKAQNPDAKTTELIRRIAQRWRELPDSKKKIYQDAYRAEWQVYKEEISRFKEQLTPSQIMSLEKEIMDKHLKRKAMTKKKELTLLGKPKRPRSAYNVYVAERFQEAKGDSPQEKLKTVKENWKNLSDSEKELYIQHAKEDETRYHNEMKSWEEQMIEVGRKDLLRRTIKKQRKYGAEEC
# [3] = target: T1, Synaptosomal-associated protein 23 (SNAP23) (human (endogenous in SW620 and HT29)); experiment: co-IP; mitochondrial and cytoplasmic fractions isolated from control (shNT) and SNAP23-knockdown SW620 cells pretreated with MG132; immunoprecipitation from each fraction, blots for SNAP23, Trim21 and TFAM
# [4] = target: T2, mitochondrial transcription factor A (TFAM) (human (endogenous in SW620 and HT29)); experiment: as above
# [5] = target: T3, SNAP23 (in HEK293T cells) (UniProt O00161); experiment: co-IP; lysates of HEK293T cells expressing Trim21 deletion mutants
# T3 sequence: T1 sequence
# TFAM (in HEK293T cells) = target: T4, TFAM (in HEK293T cells) (UniProt Q00059); experiment: as above
# T4 sequence: T2 sequence
Substance,binding [1],binding [2],binding [3],binding [4],binding [5],binding (TFAM (in HEK293T cells))
E3 ubiquitin ligase Trim21 (from UniProt P19474 1-475),binds,binds,binds,binds,,
TRIM21 (△1–81aa) (from UniProt P19474 82-475) (domain or fragment),,,,,binds,binds
TRIM21 (△1–128aa) (from UniProt P19474 129-475) (domain or fragment),,,,,binds,binds
TRIM21 (△1–268aa) (from UniProt P19474 269-475) (domain or fragment),,,,,binds,binds
